# Reference: PubChem BioAssay AID318 (DTP/NCI, 2004)
# The list does not hold the whole screen: it is rich in T/C values a quarter to a half above the control, in often repeated tests (any T/C) and in doses without a T/C. Other doses and runs of a compound stand elsewhere. T/C is the treated group as % of the vehicle group. Some entries give survivors of the animals treated and no T/C: the source files T/C as zero there, which appears to mark a toxic dose or a test without result, not a measured value. Some doses without a T/C left all or most animals alive at the check, yet need not have been tolerated: the source hardly ever lists a survival T/C far under the control, and the zero likely stands for such cases as well. Survivors were counted at the toxicity check, usually on the fifth day, unless a day is given; later deaths do not show. Schedule codes are those of the source, read here as Q, the interval in days (D) or hours (H), X, the number of doses. Some doses were run more than once; the values are given in rising order. Where survival is the endpoint, this PubChem deposit counts one and a half times the control or more as active, and values a quarter to a half above the control carry no call in these data; other NCI protocols may use other cut-offs. Some T/C values are followed by the survivors on the day toxicity was checked, most often the fifth; without a count, all were alive then.
# System: BDF1 mice, P815 leukemia ip, survival T/C
# Experiment: NCI In Vivo Anticancer Drug Screen. Data for tumor model P815 Mast Cell Leukemia (Ascitic) (intraperitoneal) in B6D2F1 (BDF1) mice
# Conditions: higher T/C = longer survival
# Method: The antitumor activity of compounds was measured in mice bearing transplantable tumors. Survival or tumor size were measured and the results are expressed as the measurement made in the treated group (T) divided by the measurement made in the vehicle treated control group (C). The tumor model used in this assay is P815 Mast Cell Leukemia (Ascitic) (intraperitoneal) in B6D2F1 (BDF1) mice
# [1] = T/C endpoint: survival time, mean or median, dose: 8.0 mg/kg/injection, schedule: Q01DX010 (ip), vehicle: saline
# [2] = T/C endpoint: survival time, mean or median, dose: 2.0 mg/kg/injection, schedule: Q01DX010 (ip), vehicle: other
# [3] = T/C endpoint: survival time, mean or median, dose: 16.0 mg/kg/injection, schedule: Q01DX010 (ip), vehicle: other
# [4] = T/C endpoint: survival time, mean or median, dose: 8.0 mg/kg/injection, schedule: Q01DX010 (ip), vehicle: other
smiles,measurement,setting,value
CS(=O)(=O)OCCN(CCOS(C)(=O)=O)c1ccc(N=O)cc1,T/C,"T/C endpoint: survival time, mean or median, dose: 0.5 mg/kg/injection, schedule: Q01DX010 (ip), vehicle: saline",144 % of control
same,T/C,"T/C endpoint: survival time, mean or median, dose: 2.0 mg/kg/injection, schedule: Q01DX010 (ip), vehicle: saline",133 % of control
same,survivor count,"T/C endpoint: survival time, mean or median, dose: 4.0 mg/kg/injection, schedule: Q01DX010 (ip), vehicle: saline",0 of 6
same,survivor count,[1],6 of 6
same,survivor count,"T/C endpoint: survival time, mean or median, dose: 16.0 mg/kg/injection, schedule: Q01DX010 (ip), vehicle: saline",0 of 6
NC(Cc1ccc(N(CCCl)CCCl)cc1)C(=O)O (configuration not stated),T/C,[2],125 % of control
same,survivor count,[3],5 of 6
Cc1nc(CON)cs1,survivor count,"T/C endpoint: median survival time, dose: 200.0 mg/kg/injection, schedule: Q01DX015 (ip), vehicle: saline",7 of 10
COc1ccc(C[n+]2cc([O-])on2)cc1,T/C,"T/C endpoint: survival time, mean or median, dose: 50.0 mg/kg/injection, schedule: Q01DX015 (ip), vehicle: carboxymethylcellulose (CMC)",125 % of control
O=C(Nc1ccc(C2=NCCN2)cc1)c1ccc(C(=O)Nc2ccc(C3=NCCN3)cc2)c([N+](=O)[O-])c1,T/C,"T/C endpoint: survival time, mean or median, dose: 6.0 mg/kg/injection, schedule: Q01DX010 (ip), vehicle: saline",141 % of control
same,T/C,[1],136 % of control
same,survivor count,"T/C endpoint: survival time, mean or median, dose: 12.0 mg/kg/injection, schedule: Q01DX010 (ip), vehicle: saline",5 of 6
same,survivor count,"T/C endpoint: survival time, mean or median, dose: 18.0 mg/kg/injection, schedule: Q01DX010 (ip), vehicle: saline",5 of 6 and 6 of 6
O=C(Nc1ccc(C2=NCCCN2)cc1)c1ccc(NC(=O)c2ccc(C3=NCCCN3)cc2)cc1,T/C,"T/C endpoint: survival time, mean or median, dose: 1.0 mg/kg/injection, schedule: Q01DX010 (ip), vehicle: other","95, 100, 105, 111 % of control"
same,T/C,[2],"122, 126, 127, 132 % of control"
same,T/C,"T/C endpoint: survival time, mean or median, dose: 4.0 mg/kg/injection, schedule: Q01DX010 (ip), vehicle: other","167 [5 of 6 alive], 173, 183, 242 % of control"
same,T/C,[4],"100, 116, 145 % of control"
same,survivor count,[4],0 of 6
same,T/C,[3],504 % of control [4 of 6 alive]
same,survivor count,[3],5 of 6 and 6 of 6
O=NN(CCCl)C(=O)NCCCl,T/C,"T/C endpoint: survival time, mean or median, dose: 12.5 mg/kg/injection, schedule: Q01DX010 (ip), vehicle: saline",145 % of control
same,survivor count,"T/C endpoint: survival time, mean or median, dose: 25.0 mg/kg/injection, schedule: Q01DX010 (ip), vehicle: saline",6 of 6
same,survivor count,"T/C endpoint: survival time, mean or median, dose: 50.0 mg/kg/injection, schedule: Q01DX010 (ip), vehicle: saline",5 of 6 and 6 of 6
C[C@H](N)C(=O)N[C@@H]1[C@H]2C(=C(O)C[C@@H](O)[C@@H]2O)C(=O)O[C@@H]1C,T/C,"T/C endpoint: survival time, mean or median, dose: 300.0 mg/kg/injection, schedule: Q01DX010 (ip), vehicle: saline",127 % of control
same,T/C,"T/C endpoint: survival time, mean or median, dose: 600.0 mg/kg/injection, schedule: Q01DX010 (ip), vehicle: saline",144 % of control
CN=C(NC)c1ccc(NC(=O)Nc2ccc(NC(=O)Nc3ccc(C(=NC)NC)cc3)cc2)cc1,survivor count,"T/C endpoint: survival time, mean or median, dose: 30.0 mg/kg/injection, schedule: Q01DX010 (ip), vehicle: saline",1 of 6
same,survivor count,"T/C endpoint: survival time, mean or median, dose: 45.0 mg/kg/injection, schedule: Q01DX010 (ip), vehicle: saline",0 of 6
